PubChem BioAssay AID720505, Drosophila RNAi Screening Center – 2013
In all, the deposit lists about 20,000 reagents; this is a random part of those with a known target gene and a result. Of all reagents, about 2,100 (10%) got an active call. 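Raw plate signals without normalisation; calls rest on control-based scores that were not deposited; replicate 2 separates called from uncalled poorly.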 A plus sign joins genes that one reagent is predicted to hit. No sequences are given here. Not given: the amount of reagent, the time to read-out.

- Assay: 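Knock-downs that reduce calcium influx once internal stores are emptied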 (primary screen)
- Cells: Drosophila S2R+ cells
- Knock-down reagent: long dsRNA against Drosophila genes
- Treatment: thapsigargin (2 µM) in calcium-free buffer to empty internal stores, then 2 mM calcium added back
- Detection: 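Stores emptied by 2 µM thapsigargin without calcium, then 2 mM calcium re-added; fluo-4 fluorescence followed by FLIPR in 384-well plates, per-well averaged endpoint, raw; two screen passes, some wells retested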
- Direction: calcium signal and retest calcium signal: higher = more calcium entry after store depletion
- Hit rule: 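Knock-downs counted as hits when calcium entry dropped relative to STIM1 positive and Rho1 negative controls present on each plate; roughly 1500 genes called, with reductions of differing size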
- Calls: active = called as lowering calcium entry; inactive = not called

target | amplicon | calcium signal, replicate 1 | calcium signal, replicate 2 | retest calcium signal, replicate 1 | retest calcium signal, replicate 2 | Call
betaTub56D | DRSC07583 | 138 | 112 | – | – | inactive
CheB42b | DRSC22878 | 73.4 | 145 | – | – | inactive
Cyp6g2 | DRSC07387 | 118 | 146 | – | – | inactive
wds | DRSC18852 | 73.1 | 110 | – | – | active
msl-1 | DRSC03573 | 91 | 75.4 | – | – | inactive
Lint-O | DRSC18468 | 122 | 122 | – | – | inactive
Gr22b | DRSC20911 | 99.5 | 9321 | – | – | inactive
CG4661 | DRSC19910 | 72 | 130 | – | – | active
CG15096 | DRSC06525 | 136 | 83.6 | – | – | inactive
hoe2 | DRSC00459 | 62.6 | 174 | – | – | active
Phb1 | DRSC03563 | 92 | 130 | – | – | inactive
HLH54F | DRSC07438 | 158 | 174 | – | – | inactive
sxe2 | DRSC15692 | 144 | 165 | – | – | inactive
Bin1 | DRSC16843 | 156 | 192 | – | – | inactive
Atg6 | DRSC15798 | 128 | 293 | – | – | inactive
ncd | DRSC17012 | 149 | 123 | – | – | inactive
Nhe3 | DRSC03380 | 121 | 108 | – | – | inactive
CG17270 | DRSC15209 | 166 | 420 | – | – | inactive
Hsl | DRSC06028 | 130 | 158 | – | – | inactive
MED7 | DRSC16059 | 91.2 | 88.4 | – | – | inactive
numb | DRSC03584 | 89.6 | 117 | – | – | inactive
CG7879 | DRSC08600 | 122 | 96.8 | – | – | inactive
CG32278 + CG14963 | DRSC22203 | 89.8 | 242 | – | – | inactive
CG5989 | DRSC10565 | 105 | 85 | – | – | inactive
CG33964 + CG13175 | DRSC06300 | 124 | 105 | – | – | inactive
CG33964 + CG13175 | DRSC06301 | 81.3 | 139 | – | – | inactive
CG33964 + CG13175 | DRSC07184 | 123 | 181 | – | – | inactive
CG9759 | DRSC16558 | 95 | 107 | – | – | inactive
CG15468 | DRSC18051 | 244 | 88.3 | – | – | inactive
DCTN6-p27 | DRSC02609 | 68.2 | 126 | 102 | 100 | active
DCTN6-p27 | DRSC22810 | 89.3 | 102 | – | – | inactive
RhoGAP71E | DRSC10232 | 136 | 95.4 | – | – | inactive
RhoGAP71E | DRSC10837 | 67 | 113 | – | – | inactive
RhoGAP71E | DRSC10838 | 62.6 | 144 | – | – | inactive
CG7024 | DRSC18414 | 266 | 116 | – | – | inactive
Ugt303B1 | DRSC15141 | 265 | 143 | – | – | inactive
Ppn | DRSC15328 | 158 | 140 | – | – | inactive
CHES-1-like | DRSC18447 | 272 | 112 | – | – | inactive
CG1773 | DRSC06688 | 163 | 90.4 | – | – | inactive
CG44837 | DRSC10133 | 54.5 | 45 | – | – | active
CG44837 | DRSC10558 | 71.1 | 75.1 | – | – | inactive
YME1L | DRSC04378 | 202 | 86.2 | – | – | inactive
CG1647 | DRSC15134 | 133 | 129 | – | – | inactive
CG16952 | DRSC19759 | 106 | 121 | – | – | inactive
CG3091 | DRSC18274 | 111 | 126 | – | – | inactive
Ptp52F | DRSC06717 | 99 | 148 | – | – | inactive
CG11970 | DRSC14157 | 132 | 130 | – | – | inactive
bru2 | DRSC01246 | 59.4 | 127 | – | – | active
bru2 | DRSC01247 | 123 | 86.9 | – | – | inactive
bru2 | DRSC01249 | 229 | 104 | – | – | inactive
bru2 | DRSC01250 | 189 | 103 | – | – | inactive
bru2 | DRSC02557 | 103 | 133 | – | – | inactive
phr6-4 | DRSC03589 | 205 | 135 | – | – | inactive
Mct1 | DRSC18681 | 110 | 110 | – | – | inactive
yellow-c + CIAPIN1 | DRSC01898 | 118 | 110 | – | – | inactive
CG32652 (retired record) | DRSC18942 | 4670 | 138 | – | – | inactive
CG32652 (retired record) | DRSC22662 | 56 | 78.1 | – | – | active
Nprl2 | DRSC20153 | 112 | 118 | – | – | inactive
CG13113 | DRSC02211 | 156 | 112 | – | – | inactive
Ocrl | DRSC18576 | 73.6 | 118 | – | – | inactive
EcR | DRSC04906 | 119 | 191 | – | – | inactive
EcR | DRSC04910 | 149 | 97.7 | – | – | inactive
CG9522 | DRSC20197 | 118 | 145 | – | – | inactive
CG18278 + CG30059 | DRSC05418 | 77.5 | 141 | – | – | inactive
Recs1 | DRSC16545 | 98.8 | 119 | – | – | inactive
hlk | DRSC05021 | 102 | 176 | – | – | inactive
hlk | DRSC05022 | 120 | 188 | – | – | inactive
Shmt | DRSC18264 | 206 | 135 | – | – | inactive
Cndp2 | DRSC04873 | 162 | 201 | – | – | inactive
CG4839 | DRSC02783 | 104 | 158 | – | – | inactive
CG4839 | DRSC02784 | 109 | 91.5 | – | – | inactive
oxt | DRSC08522 | 104 | 85.4 | – | – | inactive
CG33341 | DRSC22887 | 96.4 | 196 | – | – | inactive
CG43111 | DRSC05796 | 73.9 | 105 | – | – | inactive
PGRP-LE | DRSC20137 | 195 | 133 | – | – | inactive
Atf3 | DRSC17225 | 110 | 137 | – | – | inactive
Atf3 | DRSC22996 | 116 | 125 | – | – | inactive
CG15059 | DRSC19633 | 114 | 129 | – | – | inactive
CG13999 | DRSC02331 | 217 | 120 | – | – | inactive
Nacalpha | DRSC07477 | 146 | 91.2 | – | – | inactive
CG30010 | DRSC05193 | 86.7 | 157 | – | – | inactive
Nelf-E | DRSC10567 | 83.9 | 75.3 | – | – | inactive
alphaTub84D | DRSC12623 | 82.4 | 121 | – | – | inactive

Active calls, among the entries above:
target | amplicon | calcium signal, replicate 1 | calcium signal, replicate 2 | retest calcium signal, replicate 1 | retest calcium signal, replicate 2 | Call
wds | DRSC18852 | 73.1 | 110 | – | – | active
CG4661 | DRSC19910 | 72 | 130 | – | – | active
hoe2 | DRSC00459 | 62.6 | 174 | – | – | active
DCTN6-p27 | DRSC02609 | 68.2 | 126 | 102 | 100 | active
CG44837 | DRSC10133 | 54.5 | 45 | – | – | active
bru2 | DRSC01246 | 59.4 | 127 | – | – | active
CG32652 (retired record) | DRSC22662 | 56 | 78.1 | – | – | active
